Among the data in publication PMC3335779 are binding values, retold here.

Protein sequences, listed by entry. Tags and fused reporters are not part of them.
UniProt P63015: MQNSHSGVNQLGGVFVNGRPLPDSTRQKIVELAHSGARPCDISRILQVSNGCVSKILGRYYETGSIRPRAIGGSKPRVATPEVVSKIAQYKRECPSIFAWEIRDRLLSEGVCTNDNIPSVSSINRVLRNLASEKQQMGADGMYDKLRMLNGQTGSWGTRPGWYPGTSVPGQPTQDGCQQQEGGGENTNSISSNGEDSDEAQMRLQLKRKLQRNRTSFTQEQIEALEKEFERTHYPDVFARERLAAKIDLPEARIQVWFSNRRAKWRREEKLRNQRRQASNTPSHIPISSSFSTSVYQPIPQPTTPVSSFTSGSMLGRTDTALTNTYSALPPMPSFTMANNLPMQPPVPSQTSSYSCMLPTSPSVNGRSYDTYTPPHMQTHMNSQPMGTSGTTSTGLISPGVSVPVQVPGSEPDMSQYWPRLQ

In this assay the target is paired box 6 (Pax6) (mouse (endogenous in murine eyes)) (UniProt P63015). In words: co-IP; mouse eye lysate in IP buffer (0.1% SDS, 0.5% sodium deoxycholate, protease inhibitors); antibody (anti-Pax6, anti-TGF-β or anti-SPARC) on protein-G resin, 60 min at 4 °C with lysate; immunoblot with ECL detection; negative control: protein-G slurry without primary antibody. For orientation: Immunoblotting shows a protein as a band on a membrane.

Results are given in words; binding and its absence hold for the method and conditions named. Binding seen in cells or lysates may run through a third protein. Some entries that bind do so weakly or less than the wild type.

B1: secreted protein acidic and rich in cysteine (SPARC) (protein, UniProt P07214 18-302)
chain: APQQTEVAEEIVEEETVVEETGVPVGANPVQVEMGEFEDGAEETVEEVVADNPCQNHHCKHGKVCELDESNTPMCVCQDPTSCPAPIGEFEKVCSNDNKTFDSSCHFFATKCTLEGTKKGHKLHLDYIGPCKYIAPCLDSELTEFPLRMRDWLKNVLVTLYERDEGNNLLTEKQKLRVKKIHENEKRLEAGDHPVELLARDFEKNYNMYIFPVHWQFGQLDQHPIDGYLSHTELAPLRAPLIPMEHCTTRFFETCDLDNDKYIALEEWAGCFGIKEQDINKDLVI
For B1, the binding result is on record as “binds”.
